Measurements: article PMC11035675
Results are given in words; binding and its absence hold for the method and conditions named. Binding seen in cells or lysates may run through a third protein. Some binding calls cover weakened binding; strength is not graded here.

Sequences of proteins named here, by UniProt entry; tags and fusion partners are left off. Residues count along the entry.
UniProt P68400: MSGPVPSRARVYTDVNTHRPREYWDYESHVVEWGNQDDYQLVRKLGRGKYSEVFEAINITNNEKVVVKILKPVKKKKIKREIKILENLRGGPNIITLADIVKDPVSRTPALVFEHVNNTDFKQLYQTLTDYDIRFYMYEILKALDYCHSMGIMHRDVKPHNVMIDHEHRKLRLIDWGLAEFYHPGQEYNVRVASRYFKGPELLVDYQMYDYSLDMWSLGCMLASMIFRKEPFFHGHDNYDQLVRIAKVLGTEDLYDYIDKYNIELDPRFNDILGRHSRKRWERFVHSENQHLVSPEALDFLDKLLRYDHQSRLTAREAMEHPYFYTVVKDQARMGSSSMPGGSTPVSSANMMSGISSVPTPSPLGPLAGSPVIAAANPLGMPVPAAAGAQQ
UniProt P14625, residues 22-803: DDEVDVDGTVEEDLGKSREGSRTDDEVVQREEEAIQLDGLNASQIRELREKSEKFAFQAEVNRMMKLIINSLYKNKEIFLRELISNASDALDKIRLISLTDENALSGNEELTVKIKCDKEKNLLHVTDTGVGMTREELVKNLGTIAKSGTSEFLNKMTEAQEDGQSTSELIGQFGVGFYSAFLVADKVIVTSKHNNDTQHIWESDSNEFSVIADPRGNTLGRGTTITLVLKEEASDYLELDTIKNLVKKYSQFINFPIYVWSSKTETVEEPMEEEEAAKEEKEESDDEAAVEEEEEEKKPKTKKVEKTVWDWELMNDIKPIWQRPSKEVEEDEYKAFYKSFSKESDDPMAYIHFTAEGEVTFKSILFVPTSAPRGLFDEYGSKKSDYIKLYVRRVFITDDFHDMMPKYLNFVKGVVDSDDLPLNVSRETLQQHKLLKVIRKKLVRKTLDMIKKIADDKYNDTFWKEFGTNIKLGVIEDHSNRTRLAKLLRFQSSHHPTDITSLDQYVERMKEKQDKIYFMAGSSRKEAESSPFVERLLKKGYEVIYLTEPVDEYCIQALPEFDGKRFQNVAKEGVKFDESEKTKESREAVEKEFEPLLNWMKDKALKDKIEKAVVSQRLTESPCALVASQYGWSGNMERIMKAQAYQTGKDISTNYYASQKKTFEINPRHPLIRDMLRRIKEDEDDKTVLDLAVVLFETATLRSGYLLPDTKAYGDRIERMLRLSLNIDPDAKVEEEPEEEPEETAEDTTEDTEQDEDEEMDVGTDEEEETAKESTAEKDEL

Molecular target: Flag-CK2α (casein kinase 2 alpha), wild type (UniProt P68400)
Assay: co-IP; HEK293 cells transfected with both Myc-GRP94 and Flag-CK2α; immunoprecipitation with anti-Flag antibody; lysis buffer 50 mM Tris pH 7.5, 150 mM NaCl, 10% glycerol, 0.5% Nonidet P-40

binding: binds
Substance: Myc-GRP94 (glucose-regulated protein 94), wild type (from UniProt P14625 22-803)
